Where a name gives a salt, the structure may show the parent alone. Some of the results follow. This data set is noisy: repeats of one test often differ as much as different tests do.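 ReNCell VM, a human fetal ventral-midbrain neural progenitor line, was differentiated without mitogens. Blinded raters scored images stained for doublecortin (early neurons) or tyrosine hydroxylase (dopaminergic neurons) against untreated wells (0 = no change). Scores were averaged across repeats and both raters, and compounds averaging 2 or more were selected as hits for retesting.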
The compounds below were run on ReNCell VM (assay: neuronal differentiation score (DCX+ cell fraction vs untreated, manual image score) (score (-3 to 3)); higher = more neuronal differentiation). Conditions: library: Tocriscreen; 2 uM; 2 weeks.

Neuronal differentiation score, inactive:
O=C1CCc2c(ccc3ccccc23)O1 [Splitomicin] 0
Cc1c(C2CCN(CCc3ccccc3)CC2)noc1-c1ccc(Cl)cc1 [L-741,742 hydrochloride] 0
CCCCC#Cc1nc(NC)c2ncn([C@@H]3O[C@H](CO)[C@@H](O)[C@H]3O)c2n1 0
Cc1ccc(C(=O)Cn2c3c(sc2=N)CCCC3)cc1 [Pifithrin- à hydrobromide] 1

The compounds below were run on ReNCell VM (assay: dopaminergic neuron differentiation score (TH+ cell fraction vs untreated, manual image score) (score (0 to 3)); higher = more TH+ dopaminergic neuron differentiation). Conditions: library: LOPAC; 2 uM; 4 weeks; BDNF 10 ng/ml + GDNF 10 ng/ml.

Dopaminergic neuron differentiation score, inactive:
CC(=O)OC(C)C[N+](C)(C)C (stereo not drawn) [Acetyl-beta-methylcholine chloride] 0
OCc1cc(C(O)CNCCCCCCOCCCCc2ccccc2)ccc1O (centres undefined) [Salmeterol xinafoate] 0
Nc1nc(OCc2ccccc2)c2nc[nH]c2n1 [O6-benzylguanine] 0
Fc1ccc(C(OCCCc2cnc[nH]2)c2ccc(F)cc2)cc1 1
NC1=NCC2c3ccccc3Cc3ccccc3N12 (centres undefined) [Epinastine hydrochloride] 0
